Assay [1] deals with PTEN (human (endogenous in HCT116)) (UniProt P60484). The assay is described as follows: co-IP; endogenous PTEN or MAD1 immunoprecipitated from HCT116 cell extracts and immunoblotted for the other; also from G2 phase cells (12 hours of thymidine block and 8 hours of release).
Assay [2] concerns the target T1, MAD1 (human (endogenous in HCT116)) (UniProt Q9Y6D9).
T1 sequence: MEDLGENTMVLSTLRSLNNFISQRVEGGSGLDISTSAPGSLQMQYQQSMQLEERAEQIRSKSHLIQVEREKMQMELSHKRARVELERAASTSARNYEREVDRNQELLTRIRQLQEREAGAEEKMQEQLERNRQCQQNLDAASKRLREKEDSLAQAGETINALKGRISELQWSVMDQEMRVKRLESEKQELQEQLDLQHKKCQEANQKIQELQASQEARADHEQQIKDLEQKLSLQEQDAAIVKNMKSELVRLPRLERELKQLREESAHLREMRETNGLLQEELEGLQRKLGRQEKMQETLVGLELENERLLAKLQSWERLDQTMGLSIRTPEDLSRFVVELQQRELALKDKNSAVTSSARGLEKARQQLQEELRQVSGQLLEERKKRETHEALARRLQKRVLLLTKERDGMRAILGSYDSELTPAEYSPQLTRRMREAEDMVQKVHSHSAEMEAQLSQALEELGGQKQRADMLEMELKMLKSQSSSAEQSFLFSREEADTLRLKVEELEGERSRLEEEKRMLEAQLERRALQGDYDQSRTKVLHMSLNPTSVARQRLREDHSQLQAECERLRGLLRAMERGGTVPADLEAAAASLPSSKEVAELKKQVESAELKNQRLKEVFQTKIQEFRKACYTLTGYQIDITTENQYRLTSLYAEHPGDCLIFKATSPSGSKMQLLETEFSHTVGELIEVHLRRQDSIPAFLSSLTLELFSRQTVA
The assay can be described thus: immunoblot of extracts prepared without heat treatment; MAD1 blotted in interphase and mitotic extracts of WT and PTEN-/- HCT116 cells; MAD1 protein complexes marked. Background: A western blot detects proteins with antibodies after separation by electrophoresis.

Sequences of proteins named here, by UniProt entry; tags and fusion partners are left off.
UniProt P60484: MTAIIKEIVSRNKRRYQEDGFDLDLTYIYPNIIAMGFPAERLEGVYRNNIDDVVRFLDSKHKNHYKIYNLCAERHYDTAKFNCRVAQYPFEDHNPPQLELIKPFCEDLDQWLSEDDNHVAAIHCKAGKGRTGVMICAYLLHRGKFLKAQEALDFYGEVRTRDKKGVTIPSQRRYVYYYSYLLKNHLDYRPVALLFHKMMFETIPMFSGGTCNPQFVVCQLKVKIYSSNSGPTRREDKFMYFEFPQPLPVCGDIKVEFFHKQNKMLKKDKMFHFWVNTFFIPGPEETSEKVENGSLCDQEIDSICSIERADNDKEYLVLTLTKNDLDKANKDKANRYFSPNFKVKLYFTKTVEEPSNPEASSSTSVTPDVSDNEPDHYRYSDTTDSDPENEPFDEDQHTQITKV

Assay [3] addresses PTEN (human (endogenous in HCT116)) (UniProt P60484). The assay can be described thus: condition: only M phase cells (mitotic shake off after 12 hours of nocodazole treatment); co-IP; endogenous PTEN or MAD1 immunoprecipitated from M phase HCT116 cells (mitotic shake off after 12 hours of nocodazole treatment) and immunoblotted for the other.
Assay [4] has as its target S-HA-PTEN (UniProt P60484). The assay is described as follows: condition: only with nocodazole treatment (100 ng/ml); pull-down; S-HA-PTEN and FLAG-MAD1 transfected into HCT116 cells; PTEN pulled down by S-tag beads, MAD1 detected with a FLAG antibody; with nocodazole treatment.
In a further assay the target is T2, S-HA-MAD1 (UniProt Q9Y6D9).
T2 sequence: T1 sequence
The assay is described as follows: pull-down; S-HA-MAD1 and FLAG-MAD1 co-transfected into PTEN-/- HCT116 cells with or without FLAG-PTEN; S-HA-MAD1 pulled down by S-tag beads, blotted with indicated antibodies.

The target in assay [5] is S-HA-PTEN (UniProt P60484). The assay is described as follows: pull-down; S-HA-PTEN and FLAG-MAD1 transfected into HCT116 cells; PTEN pulled down by S-tag beads, MAD1 detected with a FLAG antibody; without nocodazole.

This note sets out measurements from PMC5716712.

No constants are given. Whether binding was seen depends on the method and setting. For part of these data: Binding seen in cells or lysates may run through a third protein. Some binding calls cover weakened binding; strength is not graded here. For part of these data: Sequences can lack the tags named with a protein.

B1: MAD1 (protein, UniProt Q9Y6D9 1-718)
chain: T1 sequence
For B1, the values for the binding result in assay [1], in assay [2] and in assay [3] were “binds”, “binds” and “no binding”, respectively.

B2: FLAG-MAD1 (protein, UniProt Q9Y6D9 1-718)
chain: T1 sequence
With B2, the results for the binding result in the assay with S-HA-PTEN [4], with S-HA-MAD1 and in the assay with S-HA-PTEN [5] were “no binding”, “binds” and “binds”, respectively.
